In patent publication US20240294636A1 (YALE UNIVERSITY, published 2024):
Results are given in words; binding and its absence hold for the method and conditions named. In cells and extracts the contact can be indirect. Some entries that bind do so weakly or less than the wild type. Where a sequence is shown, tags or fusion partners need not be part of it.

By UniProt entry, the sequences of proteins in these tests, tags left out. Residues count along the entry.
UniProt O08722, residues 27-945: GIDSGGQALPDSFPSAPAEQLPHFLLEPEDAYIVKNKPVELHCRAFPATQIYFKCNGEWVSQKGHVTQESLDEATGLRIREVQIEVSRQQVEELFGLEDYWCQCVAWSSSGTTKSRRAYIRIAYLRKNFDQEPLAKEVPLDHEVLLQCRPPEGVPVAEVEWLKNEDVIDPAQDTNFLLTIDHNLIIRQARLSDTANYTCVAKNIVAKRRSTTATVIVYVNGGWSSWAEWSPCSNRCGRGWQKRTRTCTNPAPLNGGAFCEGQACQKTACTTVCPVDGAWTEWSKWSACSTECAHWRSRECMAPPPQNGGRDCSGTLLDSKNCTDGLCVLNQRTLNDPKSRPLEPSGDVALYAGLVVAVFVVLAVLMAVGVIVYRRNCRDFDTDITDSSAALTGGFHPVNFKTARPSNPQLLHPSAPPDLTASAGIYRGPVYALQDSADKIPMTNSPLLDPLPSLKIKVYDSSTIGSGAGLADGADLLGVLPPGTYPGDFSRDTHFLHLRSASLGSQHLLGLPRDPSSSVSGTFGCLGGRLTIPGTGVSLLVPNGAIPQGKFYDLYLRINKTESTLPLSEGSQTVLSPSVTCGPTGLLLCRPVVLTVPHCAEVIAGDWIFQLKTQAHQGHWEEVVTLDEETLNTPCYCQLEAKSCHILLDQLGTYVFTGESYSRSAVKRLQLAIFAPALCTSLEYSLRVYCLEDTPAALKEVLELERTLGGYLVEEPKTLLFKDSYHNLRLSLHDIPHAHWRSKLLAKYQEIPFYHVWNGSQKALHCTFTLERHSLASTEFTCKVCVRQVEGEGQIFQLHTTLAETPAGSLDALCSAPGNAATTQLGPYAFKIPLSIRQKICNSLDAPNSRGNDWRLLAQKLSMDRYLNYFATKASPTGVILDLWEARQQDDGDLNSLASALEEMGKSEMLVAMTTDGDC

Biological target: T1, Claudin5 (in porcine aortic endothelial cells transfected with rat Unc5B-GFP) (Sus scrofa) (UniProt C3VML1)
T1 sequence: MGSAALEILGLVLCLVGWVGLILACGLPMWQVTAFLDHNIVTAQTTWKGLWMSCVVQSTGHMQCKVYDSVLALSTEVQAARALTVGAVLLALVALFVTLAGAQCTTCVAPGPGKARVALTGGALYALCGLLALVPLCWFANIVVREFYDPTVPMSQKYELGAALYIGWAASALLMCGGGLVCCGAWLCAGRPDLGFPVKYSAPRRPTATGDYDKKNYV
Test: co-immunoprecipitation from PAECs transfected with rat Unc5B-GFP

binding: binds
Substance: rat Unc5B coupled to GFP (expressed in porcine aortic endothelial cells) (from UniProt O08722 27-945) (receptor)
